Values of other authors, collected in patent US20090062253A1, “HETEROCYCLODIAZEPINE CANNABINOID RECEPTOR MODULATORS FOR TREATMENT OF DISEASE” (KALYPSYS, INC., priority 2007, published 2009).
Some of these results come from one statement about several compounds together. At least one structure is not confirmed: it was looked up by name or label, or the drawing left a doubt.

Chains of the proteins cited; added tags and fusions are not shown.
UniProt P34972, whole entry: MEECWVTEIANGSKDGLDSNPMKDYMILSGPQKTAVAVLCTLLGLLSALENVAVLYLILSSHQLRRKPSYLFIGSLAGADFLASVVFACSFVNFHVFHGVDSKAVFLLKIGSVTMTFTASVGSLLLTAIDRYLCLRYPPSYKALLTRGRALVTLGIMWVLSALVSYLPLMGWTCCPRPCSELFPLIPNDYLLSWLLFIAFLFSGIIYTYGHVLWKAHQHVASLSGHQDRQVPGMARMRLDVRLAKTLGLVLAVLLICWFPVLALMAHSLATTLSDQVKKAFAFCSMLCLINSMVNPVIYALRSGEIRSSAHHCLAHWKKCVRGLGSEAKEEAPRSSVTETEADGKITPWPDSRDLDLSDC

Target: Human CB2 (Homo sapiens, UniProt P34972)
Details: literature (Hanus et al. 1999; Ross et al. 1999); cited from earlier work

SMILES: C=C1CC[C@@H]2[C@@H](C1)c1c(OC)cc(C(C)(C)CCCCCC)cc1OC2(C)C [L5 759656]
- CB2/CB1 binding affinity ratios: 300-400
